Values quoted from earlier work, collected in US20230097076A1, “PHARMACEUTICAL FORMULATION CONTAINING A P[…] OBTAINED BY SELECTIVE LASER SINTERING (SLS) 3D PRINTING” (Biomind Labs UK Limited, priority 2021, published 2023).
At least one structure is not confirmed: it was looked up by name or label, or the drawing left a doubt.

Conditions: orally

Structure (SMILES): COc1cc(CCN)cc(OC)c1OC [mescaline, 3,4,5-trimethoxyphenetylamine]
- minimum active dose: around 100 milligrams
